Results deposited as PubChem BioAssay AID1259425 (University of Nebraska Medical Center, 2018).
Here is one part, drawn at random, of about 14,000 reagents tested. Further read-outs or replicates are left out here. Reagent sequences are not shown. Not stated in the record: the time to read-out.

- Aim: 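Find knockdowns that reproduce the gene expression pattern seen when KSR1 is lost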 (primary screen)
- Cell system: HCT116 human colon cancer cells
- Reagents: siRNA pool against human genes, 50 nM siRNA
- Measurement: 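After 50 nM siRNA pool, branched-DNA assay measures six marker transcripts per well, minus blank, normalised to the geometric mean of two housekeeping transcripts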
- Scale: BNIP3L mRNA: higher = more BNIP3L transcript after knockdown; NDRG1 mRNA: higher = more NDRG1 transcript after knockdown; BNIP3 mRNA: higher = more BNIP3 transcript after knockdown

target gene	BNIP3L mRNA, set 1	NDRG1 mRNA, set 1	BNIP3 mRNA, set 1
EFNB2	0.0598	0.0707	0.173
RALGPS1	0.113	0.188	0.231
ZMYM6	0.065	0.204	0.236
CRIPTO	0.113	0.14	0.219
ANKRD28	0.0593	0.21	0.353
CSPG4	0.15	0.159	0.299
RPN1	0.216	0.359	0.495
CYBB	0.138	0.202	0.18
KRT10	0.0909	0.209	0.352
RALY	0.209	0.182	0.526
LRCH2	0.0897	0.146	0.31
GSTP1	0.157	0.18	0.277
HYAL4	0.0198	0.159	0.546
CRTAP	0.126	0.0856	0.263
DCDC2	0.136	0.117	0.238
MTRES1	0.109	0.188	0.571
CDC6	0.0506	-0.0217	0.234
PABPC3	0.119	0.318	0.255
CRYAA	0.148	0.51	0.316
RDH14	0.106	0.158	0.317
RRM1	0.11	0.282	0.362
STAT4	0.0825	0.104	0.227
ANKRD6	0.0917	0.218	0.286
DLGAP1	0.109	0.274	0.49
GEMIN5	0.0845	0.152	0.475
RO60	0.0867	0.268	0.387
KCNC4	0.141	1.13	0.321
MAST2	0.0603	0.11	0.372
PHF8	0.206	0.24	0.266
PLEKHA5	0.138	0.144	0.301

Next part (6 carried over from the part before).
target gene	BNIP3L mRNA, set 1	NDRG1 mRNA, set 1	BNIP3 mRNA, set 1
GEMIN5	0.0845	0.152	0.475
RO60	0.0867	0.268	0.387
KCNC4	0.141	1.13	0.321
MAST2	0.0603	0.11	0.372
PHF8	0.206	0.24	0.266
PLEKHA5	0.138	0.144	0.301
NIF3L1	0.111	0.275	0.496
MAD2L2	0.0624	0.498	0.255
RHOF	0.0859	0.385	0.32
BAIAP2L1	0.0927	0.149	0.278
RAB5B	0.124	0.0653	0.381
ARL2	0.0936	1.52	0.283
DMRT3	0.165	0.24	0.736
PCSK6	0.1	0.224	0.278
PADI1	0.11	0.606	0.274
MYH6	0.161	0.567	0.413
MYH2	0.139	0.235	0.289
PPP1R10	0.0911	0.372	0.346
ACSL5	0.132	0.299	0.372
PITPNB	0.117	0.137	0.29
NDE1	0.126	0.113	0.355
FGD1	0.145	0.156	0.385
CSAG1	0.146	0.881	0.389
CTF1	0.0794	0.0947	0.247
RAPGEF2	0.0614	0.363	0.29
ARTN	0.111	0.46	0.301
